Experimental data taken from paper PMC9927933.
These are yes or no findings as the source states them, for the method shown. In cells and extracts the contact can be indirect. Some entries that bind do so weakly or less than the wild type.

The chains behind the UniProt entries cited, without tags or fusion partners.
UniProt Q9UM11: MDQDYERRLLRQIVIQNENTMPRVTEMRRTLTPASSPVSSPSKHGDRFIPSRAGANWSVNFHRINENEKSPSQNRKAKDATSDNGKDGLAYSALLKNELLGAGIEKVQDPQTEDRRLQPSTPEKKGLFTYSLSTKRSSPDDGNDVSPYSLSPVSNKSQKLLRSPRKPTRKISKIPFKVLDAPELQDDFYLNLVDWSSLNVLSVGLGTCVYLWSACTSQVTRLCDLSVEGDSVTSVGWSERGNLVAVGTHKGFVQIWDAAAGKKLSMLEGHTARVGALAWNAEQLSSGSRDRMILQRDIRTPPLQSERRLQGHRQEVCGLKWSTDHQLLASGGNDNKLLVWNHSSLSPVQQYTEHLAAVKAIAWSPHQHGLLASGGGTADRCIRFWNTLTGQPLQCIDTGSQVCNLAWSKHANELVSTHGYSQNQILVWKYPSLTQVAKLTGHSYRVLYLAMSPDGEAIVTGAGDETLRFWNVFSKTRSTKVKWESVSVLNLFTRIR
UniProt Q8TB45: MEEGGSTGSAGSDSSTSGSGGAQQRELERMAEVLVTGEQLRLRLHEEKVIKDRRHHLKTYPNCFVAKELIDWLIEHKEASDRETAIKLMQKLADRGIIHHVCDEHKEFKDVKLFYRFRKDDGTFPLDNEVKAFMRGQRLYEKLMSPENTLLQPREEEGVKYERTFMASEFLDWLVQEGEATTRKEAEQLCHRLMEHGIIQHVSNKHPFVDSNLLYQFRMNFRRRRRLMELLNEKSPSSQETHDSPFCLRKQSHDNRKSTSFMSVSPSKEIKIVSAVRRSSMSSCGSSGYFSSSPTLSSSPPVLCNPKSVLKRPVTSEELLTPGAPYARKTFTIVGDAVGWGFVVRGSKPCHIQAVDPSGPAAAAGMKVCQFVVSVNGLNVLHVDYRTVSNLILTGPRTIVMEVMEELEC

What was measured:
CDH1 [1] = molecular target: CDH1 (UniProt Q9UM11); experiment: co-IP; HEK293 cells transfected with indicated plasmids, pulled down with anti-FLAG beads, immunoblot (Figure 5E); IP lysis buffer 50 mM Tris-HCl pH 8.0, 120 mM NaCl, 1% Triton X-100, 1 mM EDTA, overnight at 4°C
CDH1 [2] = molecular target: CDH1 (UniProt Q9UM11); experiment: co-IP; reciprocal immunoprecipitation (Supplemental Figure 5A); cells and constructs not given; general co-IP method: 1-2 mg lysate in IP lysis buffer (50 mM Tris-HCl pH 8.0, 120 mM NaCl, 1% Triton X-100, 1 mM EDTA), overnight at 4°C, 5 washes, immunoblot

- binding (CDH1 [1]): binds
- binding (CDH1 [2]): binds
Substance: DEP domain-containing mechanistic target of rapamycin (mTOR) interacting protein (DEPTOR) (from UniProt Q8TB45 1-409)
